Literature values as cited in patent US11931364B2, “Modulation of the nitric oxide synthase pathway for oral health” (Meharry Medical College, priority 2016, dated 2024).
At least one compound was matched to its structure with a doubt left.

System: endothelium-dependent relaxation
Conditions: dietary BH4; patients with diabetes gastroparesis, type II diabetes, chronic smokers, hypercholesterolemia, venous conduits for coronary artery bypass graft surgery; cited from earlier work

C[C@H](O)[C@H](O)[C@H]1CNc2nc(N)[nH]c(=O)c2N1 [BH4, 5,6,7,8-tetrahydrobiopterin]
improving endothelium-dependent relaxation in patients: useful and safe
